PubChem BioAssay AID1259254 – NCATS, 2017
Shown is a random part of about 59,000 reagents. About 1,550 of them (2.6%) count as active. 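G2 share is only a proxy for re-replication; each gene was hit by three separate siRNAs, and active genes were retested.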 Reagents against one gene are numbered here. Further read-outs or replicates are left out here. The record does not give: the amount of reagent.

- Purpose: 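Gene knock-downs that lead to re-replication, shown by excess G2 DNA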 (primary screen)
- Cells: human HCT116 colorectal cancer cells
- Reagent: single siRNA against human genes
- Time to read-out: 3 days
- Read-out: 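Imaged Hoechst DNA stain sorts each cell into a cycle phase by DNA amount; per plate, G2 fraction set to 0% for non-targeting and 100% for GMNN siRNA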
- Reading the numbers: G2 robust z-score: higher = more G2 cells, more excess DNA replication
- Active means: 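An siRNA counts as active if its G2 robust z-score lies at least 5 MADs above the screen median; here such calls match roughly 38% of GMNN control or more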

G2 robust z-score, by gene and reagent
UBQLNL (GeneID 143630): #1 -0.934 inactive; #2 4.02 inactive; #3 6.46 active
HSD11B2 (GeneID 3291): #1 1.13 inactive; #2 -0.501 inactive; #3 0.332 inactive
TEX9 (GeneID 374618): #1 -0.428 inactive; #2 0.583 inactive; #3 -0.709 inactive
FTSJ1 (GeneID 24140): #1 0.444 inactive; #2 2.67 inactive; #3 -0.563 inactive
DUT (GeneID 1854): #1 -1.24 inactive; #2 -0.763 inactive; #3 -0.285 inactive
NRM (GeneID 11270): #1 0.638 inactive; #2 -0.696 inactive; #3 1.2 inactive
ATP2A1 (GeneID 487): #1 1.17 inactive; #2 1.48 inactive; #3 -0.0138 inactive
KATNA1 (GeneID 11104): #1 2.61 inactive; #2 -0.602 inactive; #3 -0.767 inactive
ABCA8 (GeneID 10351): #1 0.803 inactive; #2 -1.81 inactive; #3 1.77 inactive
KPNA2P2 (GeneID 645680): #1 -0.64 inactive; #2 0.062 inactive; #3 -0.705 inactive
MMP26 (GeneID 56547): #1 0.731 inactive; #2 0.571 inactive; #3 0.305 inactive
RPS15AP25 (GeneID 728774): #1 4.05 inactive; #2 0.298 inactive; #3 -0.568 inactive
ZNF432 (GeneID 9668): #1 -0.799 inactive; #2 -1.45 inactive; #3 -0.164 inactive
SCNN1G (GeneID 6340): #1 0.104 inactive; #2 -0.397 inactive; #3 -0.853 inactive
BUD23 (GeneID 114049): #1 1.53 inactive; #2 2.47 inactive; #3 0.645 inactive
ZNF492 (GeneID 57615): #1 -0.451 inactive; #2 -0.412 inactive; #3 1.5 inactive
ROBO2 (GeneID 6092): #1 -0.918 inactive; #2 1.83 inactive; #3 -0.957 inactive
PPP1R14A (GeneID 94274): #1 1.18 inactive; #2 -0.336 inactive; #3 0.613 inactive
SLC24A4 (GeneID 123041): #1 -0.679 inactive; #2 0.178 inactive; #3 -0.722 inactive
CST9 (GeneID 128822): #1 -0.708 inactive; #2 -0.85 inactive; #3 -0.212 inactive
AHR (GeneID 196): #1 2.78 inactive; #2 -1.15 inactive; #3 0.915 inactive
METTL13 (GeneID 51603): #1 0.916 inactive; #2 1.62 inactive; #3 -0.426 inactive
CACTIN (GeneID 58509): #1 -0.514 inactive; #2 -0.264 inactive; #3 3.41 inactive
CES4A (GeneID 283848): #1 -0.44 inactive; #2 1.02 inactive; #3 0.0139 inactive
DLG5 (GeneID 9231): #1 -1.26 inactive; #2 0.893 inactive; #3 -0.25 inactive
TEAD4 (GeneID 7004): #1 1.19 inactive; #2 -1.04 inactive; #3 0.893 inactive
TRUB1 (GeneID 142940): #1 0.309 inactive; #2 -0.396 inactive; #3 1.31 inactive
LOC645481 (GeneID 645481): #1 1.99 inactive; #2 3.86 inactive; #3 -0.756 inactive
C11orf97 (GeneID 643037): #1 0.172 inactive; #2 -0.453 inactive; #3 -0.463 inactive
